Measurements from PubChem BioAssay AID540275 (National Center for Advancing Translational Sciences (NCATS), 2011).
In all, about 320,000 compounds went through this assay and about 620 (0.19%) were called active. The shares of active, inactive and inconclusive entries below differ from those in the screen. Cut-off read from the data, not from the text of the source: active = activation above about 80%; inconclusive = between about 30% and that limit; inactive = weaker than that.

Amino acid sequences for entries named in this document (tags omitted).
UniProt Q8NER1, whole entry, looked up: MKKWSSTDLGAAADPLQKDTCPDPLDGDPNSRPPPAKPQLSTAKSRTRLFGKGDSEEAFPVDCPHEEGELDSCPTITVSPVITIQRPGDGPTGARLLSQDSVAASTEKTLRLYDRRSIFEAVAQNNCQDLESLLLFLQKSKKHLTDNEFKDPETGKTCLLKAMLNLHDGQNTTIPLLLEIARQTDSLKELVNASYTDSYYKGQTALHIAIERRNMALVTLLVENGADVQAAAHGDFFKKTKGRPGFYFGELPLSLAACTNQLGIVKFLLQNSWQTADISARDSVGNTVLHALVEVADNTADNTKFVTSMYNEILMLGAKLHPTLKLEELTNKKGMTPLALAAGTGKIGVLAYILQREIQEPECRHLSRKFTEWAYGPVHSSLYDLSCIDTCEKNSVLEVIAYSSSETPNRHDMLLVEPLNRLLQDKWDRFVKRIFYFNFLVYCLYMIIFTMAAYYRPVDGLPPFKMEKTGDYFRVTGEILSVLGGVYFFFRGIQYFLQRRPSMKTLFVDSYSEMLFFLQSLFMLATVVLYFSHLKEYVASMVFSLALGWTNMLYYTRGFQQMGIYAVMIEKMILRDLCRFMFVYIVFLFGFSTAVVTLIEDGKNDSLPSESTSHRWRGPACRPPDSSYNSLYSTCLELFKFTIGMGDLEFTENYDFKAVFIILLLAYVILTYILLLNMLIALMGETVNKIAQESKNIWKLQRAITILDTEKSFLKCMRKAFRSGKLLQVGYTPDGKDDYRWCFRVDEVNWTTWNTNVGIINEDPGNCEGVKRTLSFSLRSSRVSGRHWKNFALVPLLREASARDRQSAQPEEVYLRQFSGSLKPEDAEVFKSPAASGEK

These compounds were tested against Transient receptor potential cation channel subfamily V member 1 (Homo sapiens) (UniProt Q8NER1) (assay: HTS Assay for Compounds that Act as Agonists of the Vanilloid Receptor 1). Details: TRPV1-expressing cells, Fluo-8 calcium influx, agonist mode; at 8.33 µM, stronger effect = higher value.
Outline: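 TRPV1-expressing cells were cultured overnight at 35.5C and loaded with Fluo-8 calcium dye for 40 to 90 min at room temperature. After a 10 s baseline, compound was added and calcium influx was read kinetically for 3 min (ex 480/em 520 nm).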
Note: 0% is about no effect.

Q: For `CC(O)CNc1nc2sc3c(c2c(=O)n1CCc1ccccc1)CCCCC3` (stereo not given), which activation is on record?
A: inconclusive: 35%

Q: With `C#CCOCCOCCOCCNc1nc(N2CCN(C(=O)CCCCCCCCCCNC(=O)[C@H](CCCCN)n3cc(C)nn3)CC2)nc(N2CCN(C(=O)CCCCCCCCCCNC(=O)[C@@H]([C@H](C)CC)n3cc(CCCCCN)nn3)CC2)n1` as the compound, how does the activation read?
A: inactive: 6.07%

Q: `CCC(C)n1c(SCC(=O)/C(C#N)=C(\C)N)nc2ccccc2c1=O` (stereo not given) was tested. Which activation did it give?
A: inconclusive: 41.2%

Q: `COCCNC(=O)CN(Cc1ccc2c(c1)OCO2)C(=O)CCC(=O)Nc1nccs1` was tested. Which activation did it give?
A: inactive: -0.0372%

Q: `Cc1cccc(OCC(=O)NCCCNC(=O)c2ccco2)c1` was tested. Which activation did it give?
A: inactive: -0.316%

Q: Which activation does the source give for `CCOc1cc(/C=N/NC(=O)c2ccccc2OCc2ccc(F)cc2)ccc1O` here?
A: inconclusive: 36.9%

Q: How did the activation turn out when `CC(C)Oc1cccc(C(=O)C2CCCN(C(=O)c3cc(C(F)(F)F)[nH]n3)C2)c1` (stereo not given) was run?
A: inconclusive: 38.1%

Q: Which activation does the source give for `O=C(CC12CC3CC(CC(C3)C1)C2)Nc1ccccc1N1CCOCC1` here?
A: inconclusive: 38.1%

Q: With `CCOc1ccc(-c2n[nH]c(=S)c3ccccc23)cc1` as the compound, how does the activation read?
A: inactive: -1.9%

Q: For `CCOC(=O)C(NCCc1ccccc1)(NC(=O)CC)C(F)(F)F` (stereo not given), which activation is on record?
A: inactive: 2.43%

Q: Which activation does the source give for `O=C(c1ccc(Br)o1)N1CCN(C/C=C/c2ccccc2)CC1` here?
A: inactive: 2.89%

Q: `O=C(NCCc1ccc(Cl)cc1)c1ccc(Br)s1` was tested. Which activation did it give?
A: inconclusive: 75.4%

Q: Which activation does the source give for `Cc1ccc(S(=O)(=O)N2CCCC(C(=O)N3CCCc4ccccc43)C2)cc1` (stereo not given) here?
A: inconclusive: 52.3%

Q: `Oc1ccc(Br)cc1C1C=C(c2ccc3c(c2)OCO3)NC(c2ccc(F)c(Br)c2)N1` (stereo not given) was tested. Which activation did it give?
A: inactive: 10.6%

Q: How did the activation turn out when `CC(=O)NCC1CCCN(Cc2cn(-c3ccccc3F)nc2-c2cc(C)sc2C)C1` (stereo not given) was run?
A: inconclusive: 62.1%

Q: For `O=C(c1ccccc1)c1ccc(N2CCCC2)cc1`, which activation is on record?
A: inconclusive: 37%

Q: How did the activation turn out when `O=C(CN(Cc1ccc(F)cc1)S(=O)(=O)c1ccc(S(=O)(=O)N2CCOCC2)cc1)Nc1ccccc1` was run?
A: inconclusive: 44.6%

Q: How did the activation turn out when `O=C(COc1ccc(F)cc1Br)Nc1ccccc1N1CCOCC1` was run?
A: inconclusive: 30.7%

Q: `O=C(c1ccc2c(c1)N(Cc1ccccc1)C(=O)c1ccccc1S2)N1CCCC1` was tested. Which activation did it give?
A: inactive: -2.01%

Q: `CCOc1ccc(-c2c(C(=O)N/N=C/c3ccsc3)nnn2-c2nonc2N)cc1` was tested. Which activation did it give?
A: inconclusive: 34.8%

Q: `CC1CCC(NC(=O)c2ccc(-n3cncn3)c([N+](=O)[O-])c2)CC1` (stereo not given) was tested. Which activation did it give?
A: inconclusive: 47.9%

Q: Which activation does the source give for `CC(C)c1onc(C(=O)Nc2ccc3c(c2)OCO3)c1[N+](=O)[O-]` here?
A: inconclusive: 53.6%

Q: Which activation does the source give for `CCc1ccc(NC(=O)c2noc(C(C)C)c2[N+](=O)[O-])cc1` here?
A: inconclusive: 41.2%

Q: With `CC(CCc1ccccc1)NC(=O)c1ccc(NC(=O)c2ccccc2)cc1` (stereo not given) as the compound, how does the activation read?
A: inactive: 4.01%

Q: Which activation does the source give for `Cc1ccc(CNC(=O)COc2cc(O)c3c(c2)OC(C)(C)CC3=O)cc1` here?
A: inconclusive: 33.3%

Q: For `Cc1ccc(NC(=S)N(CCN(C)C)C(C)c2ccco2)cc1C` (stereo not given), which activation is on record?
A: inactive: -6.36%

Q: With `O=C(O)c1ccccc1-c1ccc(/C=C/c2cc(C(F)(F)F)[nH]c(=O)n2)o1` as the compound, how does the activation read?
A: inconclusive: 30.9%

Q: `COC(=O)[C@@]1(Cc2ccc(F)cc2)[C@H]2c3cc(C(=O)N(C)C)n(Cc4nc5ccccc5[nH]4)c3C[C@H]2CN1C(=O)c1ccccc1` was tested. Which activation did it give?
A: inactive: 0.913%

Q: With `CC1(C)CC(C(=O)NCCC(c2ccccc2)c2ccco2)CCO1` (stereo not given) as the compound, how does the activation read?
A: inconclusive: 32.7%

Q: Which activation does the source give for `COc1ccc2oc(C(=O)NCCC(C)C)c(C)c2c1` here?
A: inconclusive: 55.1%

Q: With `O=C(NCc1cccs1)C1CC(c2ccc(Cl)cc2)=NO1` (stereo not given) as the compound, how does the activation read?
A: inactive: 22.6%

Q: Which activation does the source give for `O=C(Nc1ccc(F)cc1)C1CCN(S(=O)(=O)c2cccc3nonc23)CC1` here?
A: inconclusive: 46.7%

Q: `COc1ccc(-c2nnn(-c3cc(Cl)cc(Cl)c3)c2N)cc1` was tested. Which activation did it give?
A: inconclusive: 41.5%

Q: Which activation does the source give for `COc1ccc(SCCc2nnc(-c3ccccc3)o2)cc1` here?
A: inconclusive: 31%

Q: With `COCCn1c(C)cc(C(=O)COC(=O)c2ccccc2Br)c1C` as the compound, how does the activation read?
A: inactive: 7.06%

Q: For `Cc1nn(CCC(=O)NNC(=S)Nc2ccc(F)cc2)c(C)c1[N+](=O)[O-]`, which activation is on record?
A: inactive: -3.37%

Q: With `COc1cc(C(=O)Nc2cccc(-c3nncn3C)c2)cc(OC)c1OC` as the compound, how does the activation read?
A: inactive: -1.07%

Q: With `Cc1cc(/C=C2\NC(=S)N(C)C2=O)ccc1N1CCCC1` as the compound, how does the activation read?
A: active: 88.9%

Q: For `CCOC(=O)c1cnc2c(CC)cccc2c1NCCN1CCOCC1`, which activation is on record?
A: inconclusive: 72.5%

Q: For `COc1ccc(-c2nnc(N3CCOCC3)c3ccccc23)cc1`, which activation is on record?
A: inactive: 2.66%

Q: For `CCOC(=O)N/N=C/c1c(C)nn(-c2cccc(C(F)(F)F)c2)c1Cl`, which activation is on record?
A: inactive: 2.45%

Q: Which activation does the source give for `C/C(CC(=O)Nc1ccc(Cl)cc1Cl)=N\NC(=O)c1ccncc1` here?
A: inconclusive: 32.9%

Q: `Cc1cc(OCC(=O)Nc2ccncc2)cc(C)c1Cl` was tested. Which activation did it give?
A: inconclusive: 63.8%

Q: With `CCOC(=O)c1ccc(NC(=O)NC2CC3CCC(C2)N3Cc2nnnn2C(C)(C)C)cc1` (stereo not given) as the compound, how does the activation read?
A: inconclusive: 48.7%

Q: With `COc1ccc(C(=O)NCCSCc2ccc(Cl)cc2)cc1OC` as the compound, how does the activation read?
A: inconclusive: 52.5%

Q: For `Cc1ccc(/C(N)=N/OC(=O)c2ccc3c(c2)OCO3)cc1`, which activation is on record?
A: inconclusive: 35.8%

Q: For `CCOC(=O)c1ccc(NC(=O)/C=C/c2cccs2)cc1`, which activation is on record?
A: active: 83.8%

Q: Which activation does the source give for `Cc1ccc(S(=O)(=O)N2CCCCC2)cc1C(=O)N(CCc1ccccc1)Cc1ccccc1` here?
A: inconclusive: 34.8%

Q: For `Cc1ccc(NC(=O)c2ccc(CSc3ccccn3)cc2)c(O)c1`, which activation is on record?
A: inconclusive: 55.4%

Q: Which activation does the source give for `CC(=O)N(CCN1CCOCC1)Cc1cc2cc3c(cc2nc1Cl)OCO3` here?
A: inconclusive: 70.5%

Q: With `CS(=O)(=O)Nc1ccc(C2=NN(C(=O)c3ccco3)C(c3ccc(F)cc3)C2)cc1` (stereo not given) as the compound, how does the activation read?
A: inconclusive: 30.1%

Q: `Cc1c(Cl)ccc2sc(N3CCN(C(=O)C4=COCCO4)CC3)nc12` was tested. Which activation did it give?
A: inconclusive: 61.6%

Q: How did the activation turn out when `CCC(=O)NCCn1ccc2ccccc21` was run?
A: inactive: 0.773%

Q: How did the activation turn out when `Cc1ccc(S(=O)(=O)NCC2CCCO2)cc1` (stereo not given) was run?
A: inactive: -0.129%

Q: Which activation does the source give for `Cc1ccc(/C=C/C(=O)NN2CCN(C)CC2)cc1` here?
A: inconclusive: 39.3%
